The text below walks through data of PMC9556433.

The target of the test is Artemisia calmodulin (ArtCaM) (Artemisia (A. sieversiana and A. lavandulifolia)). The experiment in a line: co-IP; Co-IP between ArtCaM and DCs; told only in the discussion, no methods, detection or conditions given; only the target purified.

Results are given in words; binding and its absence hold for the method and conditions named. Binding seen in cells or lysates may run through a third protein. Binding can be weak; no strength is given.

B1: pattern recognition receptors adaptor protein (WDFY1) (protein, UniProt Q8IWB7 1-410)
chain: MAAEIHSRPQSSRPVLLSKIEGHQDAVTAALLIPKEDGVITASEDRTIRVWLKRDSGQYWPSIYHTMASPCSAMAYHHDSRRIFVGQDNGAVMEFHVSEDFNKMNFIKTYPAHQNRVSAIIFSLATEWVISTGHDKCVSWMCTRSGNMLGRHFFTSWASCLQYDFDTQYAFVGDYSGQITLLKLEQNTCSVITTLKGHEGSVACLWWDPIQRLLFSGASDNSIIMWDIGGRKGRTLLLQGHHDKVQSLCYLQLTRQLVSCSSDGGIAVWNMDVSREEAPQWLESDSCQKCEQPFFWNIKQMWDTKTLGLRQHHCRKCGQAVCGKCSSKRSSYPVMGFEFQVRVCDSCYDSIKDEDRTSLATFHEGKHNISHMSMDIARGLMVTCGTDRIVKIWDMTPVVGCSLATGFSPH
With B1, the binding result is reported as “binds”.
